Consider 3 substances from paper PMC5642512.

Chains of the proteins cited; added tags and fusions are not shown. Lines headed by an entry give the natural chain unless they say otherwise; changes in a name come on top.
UniProt P22736: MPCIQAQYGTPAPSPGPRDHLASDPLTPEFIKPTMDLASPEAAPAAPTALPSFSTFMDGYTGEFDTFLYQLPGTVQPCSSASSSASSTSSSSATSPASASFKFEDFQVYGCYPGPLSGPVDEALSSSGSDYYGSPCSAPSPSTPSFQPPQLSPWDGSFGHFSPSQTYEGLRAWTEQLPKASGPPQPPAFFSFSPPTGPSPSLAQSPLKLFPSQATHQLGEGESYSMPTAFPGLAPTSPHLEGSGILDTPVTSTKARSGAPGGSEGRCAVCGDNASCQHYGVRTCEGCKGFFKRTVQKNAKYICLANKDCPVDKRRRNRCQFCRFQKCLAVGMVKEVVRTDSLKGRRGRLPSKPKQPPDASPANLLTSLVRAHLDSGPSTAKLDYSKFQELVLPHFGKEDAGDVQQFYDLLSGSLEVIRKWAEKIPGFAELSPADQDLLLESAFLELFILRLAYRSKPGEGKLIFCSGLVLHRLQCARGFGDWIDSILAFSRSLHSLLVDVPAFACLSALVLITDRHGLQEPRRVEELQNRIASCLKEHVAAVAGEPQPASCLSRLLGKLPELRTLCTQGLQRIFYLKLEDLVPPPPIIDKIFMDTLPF
UniProt P10415: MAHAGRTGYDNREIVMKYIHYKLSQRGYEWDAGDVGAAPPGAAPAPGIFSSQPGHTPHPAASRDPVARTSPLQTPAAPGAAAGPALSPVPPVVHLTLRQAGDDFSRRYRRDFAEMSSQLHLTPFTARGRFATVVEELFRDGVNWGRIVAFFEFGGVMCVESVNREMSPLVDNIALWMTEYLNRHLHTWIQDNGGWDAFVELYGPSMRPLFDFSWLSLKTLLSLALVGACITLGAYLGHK

Results are given in words; binding and its absence hold for the method and conditions named. Binding seen in cells or lysates may run through a third protein. Some binding calls cover weakened binding; strength is not graded here.

For assay [1], the target named is Flag-tagged Nur77 (UniProt P22736). The experiment in a line: co-IP; Flag-Nur77 transfected alone or with Flag-Bcl-2, Flag-Bcl-2/S87A or Flag-Bcl-2/T56A into Bcl-2-depleted HeLa cells; with or without CCE9; lysates immunoprecipitated with anti-Flag antibody, blotted with anti-Myc and anti-Flag (as the legend prints).
For assay [2] the target is unchanged. The experiment in a line: co-IP; Myc-Bcl-2 or Myc-Bcl-2/S87A and Flag-Nur77 co-transfected into HeLa229 or A549 cells; with or without CCE9 and SB203580; lysates immunoprecipitated with anti-Flag antibody, blotted with anti-Myc and anti-Flag.

In the case of Flag-Bcl-2 (from UniProt P10415 1-239), the binding entry in assay [1] is “binds”.

Consider “Myc-Bcl-2/S87A (from UniProt P10415 1-239)”, for which the binding entry in assay [2] is listed as “no binding”. As for “Myc-tagged Bcl-2 (from UniProt P10415 1-239)”, in assay [2], the binding result is “binds”.
